Results are given in words; binding and its absence hold for the method and conditions named. Binding seen in cells or lysates may run through a third protein. Here binding means that the protein was enriched with, or labelled near, the bait; the list need not be complete. A no says only that the protein was not detected with the bait.
Target: T1, SCRB1 variant 1 (V1), overexpressed in EA.hy926 cells (human) (UniProt Q8WTV0)
T1 sequence: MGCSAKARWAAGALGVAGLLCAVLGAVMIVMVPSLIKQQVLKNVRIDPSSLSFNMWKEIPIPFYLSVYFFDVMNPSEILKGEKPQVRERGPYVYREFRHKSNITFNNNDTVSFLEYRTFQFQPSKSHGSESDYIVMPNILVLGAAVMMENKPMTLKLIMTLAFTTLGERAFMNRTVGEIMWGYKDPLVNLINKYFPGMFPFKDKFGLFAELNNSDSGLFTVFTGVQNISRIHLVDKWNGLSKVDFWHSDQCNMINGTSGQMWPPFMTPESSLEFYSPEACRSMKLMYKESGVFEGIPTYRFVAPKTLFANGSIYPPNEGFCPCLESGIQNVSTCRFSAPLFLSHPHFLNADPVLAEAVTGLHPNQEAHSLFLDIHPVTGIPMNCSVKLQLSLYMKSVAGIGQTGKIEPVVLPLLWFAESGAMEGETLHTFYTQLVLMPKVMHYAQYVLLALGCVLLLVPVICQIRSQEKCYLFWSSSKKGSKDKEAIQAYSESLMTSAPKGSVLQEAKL
Test: proximity labelling

Protein sequences, listed by entry. Tags and fused reporters are not part of them. Residues count along the entry.
UniProt Q92692, residues 32-538: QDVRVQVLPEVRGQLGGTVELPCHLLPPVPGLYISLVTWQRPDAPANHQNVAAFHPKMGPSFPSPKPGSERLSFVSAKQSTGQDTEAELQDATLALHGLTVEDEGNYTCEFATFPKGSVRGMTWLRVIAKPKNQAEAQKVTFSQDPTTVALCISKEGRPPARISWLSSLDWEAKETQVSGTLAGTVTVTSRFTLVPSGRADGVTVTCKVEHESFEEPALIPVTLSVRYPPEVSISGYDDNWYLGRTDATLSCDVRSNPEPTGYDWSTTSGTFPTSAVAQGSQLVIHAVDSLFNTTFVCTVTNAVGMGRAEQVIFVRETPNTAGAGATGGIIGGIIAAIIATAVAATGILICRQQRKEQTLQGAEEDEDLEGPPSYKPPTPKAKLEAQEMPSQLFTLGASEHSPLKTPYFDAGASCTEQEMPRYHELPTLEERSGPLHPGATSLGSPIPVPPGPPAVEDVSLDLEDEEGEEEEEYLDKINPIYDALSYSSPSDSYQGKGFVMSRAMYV
UniProt P35968, residues 20-1356: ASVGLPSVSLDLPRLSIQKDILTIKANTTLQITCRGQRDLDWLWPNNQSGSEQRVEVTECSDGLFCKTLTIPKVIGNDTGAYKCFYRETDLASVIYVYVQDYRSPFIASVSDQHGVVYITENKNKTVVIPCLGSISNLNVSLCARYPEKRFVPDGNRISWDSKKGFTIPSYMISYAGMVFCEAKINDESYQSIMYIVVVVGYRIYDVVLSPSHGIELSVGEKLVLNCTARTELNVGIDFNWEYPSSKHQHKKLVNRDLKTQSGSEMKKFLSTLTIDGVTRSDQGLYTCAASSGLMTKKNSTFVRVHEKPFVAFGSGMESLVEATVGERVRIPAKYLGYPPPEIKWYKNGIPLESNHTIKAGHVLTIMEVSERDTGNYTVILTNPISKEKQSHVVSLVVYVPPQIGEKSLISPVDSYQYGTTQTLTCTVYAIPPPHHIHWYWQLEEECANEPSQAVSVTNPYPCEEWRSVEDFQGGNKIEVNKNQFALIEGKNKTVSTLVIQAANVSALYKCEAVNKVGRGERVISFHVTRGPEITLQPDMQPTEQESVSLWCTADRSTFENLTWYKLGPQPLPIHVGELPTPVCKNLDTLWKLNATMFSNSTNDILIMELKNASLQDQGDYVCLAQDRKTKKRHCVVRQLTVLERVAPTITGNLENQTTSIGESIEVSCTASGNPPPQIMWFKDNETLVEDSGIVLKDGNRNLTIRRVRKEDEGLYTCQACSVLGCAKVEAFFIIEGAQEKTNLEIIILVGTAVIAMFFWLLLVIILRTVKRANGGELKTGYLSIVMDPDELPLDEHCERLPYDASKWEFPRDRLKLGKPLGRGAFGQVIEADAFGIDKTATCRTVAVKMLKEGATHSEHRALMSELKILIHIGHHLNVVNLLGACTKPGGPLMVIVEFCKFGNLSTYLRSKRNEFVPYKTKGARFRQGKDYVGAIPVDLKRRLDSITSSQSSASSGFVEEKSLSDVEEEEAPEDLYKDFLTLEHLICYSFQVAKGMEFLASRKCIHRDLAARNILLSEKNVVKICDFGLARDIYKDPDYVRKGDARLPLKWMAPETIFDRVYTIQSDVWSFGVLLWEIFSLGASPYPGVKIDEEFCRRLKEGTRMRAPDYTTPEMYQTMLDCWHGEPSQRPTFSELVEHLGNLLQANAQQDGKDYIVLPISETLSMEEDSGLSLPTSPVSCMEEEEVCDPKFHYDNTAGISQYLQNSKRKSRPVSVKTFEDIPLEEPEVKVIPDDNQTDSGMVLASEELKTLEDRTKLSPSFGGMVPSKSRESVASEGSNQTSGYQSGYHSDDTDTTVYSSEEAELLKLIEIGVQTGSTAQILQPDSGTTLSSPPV

Row | Substance | binding
1 | Nectin-2 (NECT2) (from UniProt Q92692 32-538) (receptor) | no binding
2 | Vascular endothelial growth factor receptor 2 (VGFR2) (from UniProt P35968 20-1356) | no binding
